Results are given in words; binding and its absence hold for the method and conditions named. In cells and extracts the contact can be indirect. Some results given as binding are weak or reduced against the parent protein; the word gives no strength. For part of these data: Sequences can lack the tags named with a protein. Values belong to the molecule of their own block, whether it stands above or below them.
Columns and labels:
[1] = target: T1, c-myc-tagged CIITA (major histocompatibility complex class II transactivator), in HEK293T cells (UniProt P33076); assay: pull-down; c-myc-CIITA from lysate of transfected HEK293T cells held on c-Myc beads, incubated with lysate of HEK293T cells transfected with AP2α; immunoblot
T1 sequence: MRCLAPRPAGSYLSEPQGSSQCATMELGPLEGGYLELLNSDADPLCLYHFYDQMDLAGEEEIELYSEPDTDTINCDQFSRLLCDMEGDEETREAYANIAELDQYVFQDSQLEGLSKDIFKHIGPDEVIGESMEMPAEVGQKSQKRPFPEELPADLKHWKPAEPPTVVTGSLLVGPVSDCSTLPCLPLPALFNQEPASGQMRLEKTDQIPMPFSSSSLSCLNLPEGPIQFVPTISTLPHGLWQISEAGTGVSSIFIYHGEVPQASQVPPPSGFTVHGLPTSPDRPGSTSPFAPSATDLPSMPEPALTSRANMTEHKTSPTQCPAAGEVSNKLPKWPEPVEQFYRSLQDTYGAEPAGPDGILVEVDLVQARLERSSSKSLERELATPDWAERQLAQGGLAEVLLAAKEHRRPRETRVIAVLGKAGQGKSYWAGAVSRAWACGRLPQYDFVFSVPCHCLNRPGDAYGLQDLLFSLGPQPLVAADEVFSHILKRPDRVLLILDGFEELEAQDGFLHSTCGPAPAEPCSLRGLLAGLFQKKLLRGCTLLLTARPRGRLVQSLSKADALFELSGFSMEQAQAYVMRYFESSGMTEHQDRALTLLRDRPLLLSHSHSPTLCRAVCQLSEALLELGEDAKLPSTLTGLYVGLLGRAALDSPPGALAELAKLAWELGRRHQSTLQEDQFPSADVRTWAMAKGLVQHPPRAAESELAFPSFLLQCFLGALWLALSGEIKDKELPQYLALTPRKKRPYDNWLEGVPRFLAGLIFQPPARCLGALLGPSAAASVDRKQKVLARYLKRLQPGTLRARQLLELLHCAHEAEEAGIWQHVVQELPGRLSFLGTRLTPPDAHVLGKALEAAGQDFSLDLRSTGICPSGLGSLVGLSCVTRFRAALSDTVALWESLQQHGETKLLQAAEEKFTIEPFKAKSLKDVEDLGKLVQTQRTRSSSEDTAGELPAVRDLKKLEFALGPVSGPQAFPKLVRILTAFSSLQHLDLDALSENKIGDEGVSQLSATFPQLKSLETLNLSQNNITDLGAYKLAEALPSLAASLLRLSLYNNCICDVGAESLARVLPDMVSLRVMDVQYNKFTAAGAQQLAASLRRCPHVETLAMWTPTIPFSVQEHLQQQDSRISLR

Amino acid sequences for entries named in this document (tags omitted).
UniProt P05549: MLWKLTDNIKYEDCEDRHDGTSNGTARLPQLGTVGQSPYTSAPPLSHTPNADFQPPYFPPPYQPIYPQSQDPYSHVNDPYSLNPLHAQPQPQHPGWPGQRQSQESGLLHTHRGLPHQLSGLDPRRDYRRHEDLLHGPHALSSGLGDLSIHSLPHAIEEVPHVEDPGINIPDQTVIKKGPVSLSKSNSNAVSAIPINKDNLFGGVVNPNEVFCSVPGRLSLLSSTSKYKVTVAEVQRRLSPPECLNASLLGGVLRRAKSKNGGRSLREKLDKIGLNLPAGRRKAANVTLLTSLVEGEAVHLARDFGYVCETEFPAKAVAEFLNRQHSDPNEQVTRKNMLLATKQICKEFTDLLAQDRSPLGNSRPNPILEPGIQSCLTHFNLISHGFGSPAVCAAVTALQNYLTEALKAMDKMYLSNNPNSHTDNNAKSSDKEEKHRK

[2] = target: T2, c-myc-tagged CIITA (major histocompatibility complex class II transactivator), in osteocytes (UniProt P33076); assay: co-IP; osteocytes transfected with c-myc-CIITA plasmid; lysate immunoprecipitated, immunoblot
T2 sequence: T1 sequence

[3] = target: T3, phosphorylated STAT1 (mouse (endogenous in MLO-Y4 and MLO-A5)), P42225; assay: co-IP; lysates of MLO-Y4 and MLO-A5 osteocytes cultured with 2DDR, immunoprecipitated with an anti-phosphorylated STAT1 antibody (agarose-immobilized, 4 °C overnight), blotted for IRF1; settings: remark: other sources report otherwise
T3 chain: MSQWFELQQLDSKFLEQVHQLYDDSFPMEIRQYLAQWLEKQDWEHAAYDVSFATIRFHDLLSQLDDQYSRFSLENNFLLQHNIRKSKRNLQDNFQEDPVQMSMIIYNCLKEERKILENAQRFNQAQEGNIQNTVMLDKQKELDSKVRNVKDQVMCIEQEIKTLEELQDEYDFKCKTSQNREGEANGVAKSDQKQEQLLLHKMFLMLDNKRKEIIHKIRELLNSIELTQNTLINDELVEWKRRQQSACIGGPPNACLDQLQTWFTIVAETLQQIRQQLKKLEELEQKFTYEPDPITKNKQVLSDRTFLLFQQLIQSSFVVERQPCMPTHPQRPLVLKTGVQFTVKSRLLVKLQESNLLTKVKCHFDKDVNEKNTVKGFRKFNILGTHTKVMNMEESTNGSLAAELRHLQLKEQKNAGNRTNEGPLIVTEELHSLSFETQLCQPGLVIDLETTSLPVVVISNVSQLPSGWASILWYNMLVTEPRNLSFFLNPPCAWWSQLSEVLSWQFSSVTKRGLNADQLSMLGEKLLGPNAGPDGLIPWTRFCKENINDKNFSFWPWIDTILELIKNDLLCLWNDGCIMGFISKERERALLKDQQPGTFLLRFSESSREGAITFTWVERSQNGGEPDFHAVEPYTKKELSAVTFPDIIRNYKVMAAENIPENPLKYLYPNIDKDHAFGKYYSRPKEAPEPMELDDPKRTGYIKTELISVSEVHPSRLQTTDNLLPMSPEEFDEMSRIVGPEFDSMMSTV

binding [1]: binds
Molecule: AP2α expressed in HEK293T cells (from UniProt P05549 1-437)

binding [2]: binds
Molecule: transcriptional factor AP2α, in osteocytes transfected with c-myc-CIITA (from UniProt P05549 1-437)

binding [3]: binds
B1: interferon regulatory factor 1, P15314 1-329 (protein)
chain: MPITRMRMRPWLEMQINSNQIPGLIWINKEEMIFQIPWKHAAKHGWDINKDACLFRSWAIHTGRYKAGEKEPDPKTWKANFRCAMNSLPDIEEVKDQSRNKGSSAVRVYRMLPPLTRNQRKERKSKSSRDTKSKTKRKLCGDVSPDTFSDGLSSSTLPDDHSSYTTQGYLGQDLDMERDITPALSPCVVSSSLSEWHMQMDIIPDSTTDLYNLQVSPMPSTSEAATDEDEEGKIAEDLMKLFEQSEWQPTHIDGKGYLLNEPGTQLSSVYGDFSCKEEPEIDSPRGDIGIGIQHVFTEMKNMDSIMWMDSLLGNSVRLPPSIQAIPCAP
modifications: here or on the partner: phosphotyrosine at 701 (as named for the antibody: Phospho-STAT1 (Tyr701))

Reference: PMC9237076
